Test results published in patent US20230374087A1, “METHOD TO IMPROVE PROTEIN QUALITY CONTROL” (The Johns Hopkins University, priority 2020, published 2023).

Experiment: Resting phenotype of CHIP S20E knock-in mice aged 9-12 months
Assay type: in vivo, mouse
[1] = knock-in mice aged 9-12 months, resting

B1: CHIP-S20E: CHIP with serine 20 to glutamic acid phospho-mimetic substitution; recombinant protein, adenovirus-expressed, or knock-in mouse (protein)
chain: MKGKEEKEGGARLGAGGGEPEKSPSAQELKEQGNRLFVGRKYPEAAACYGRVITRNPLVAVYYTNRALCYLKMQQHEQALADCRRALELDGQSVKAHFFLGQCQLEMESYDEAIANLQRAYSLAKEQRLNFGDDIPSALRIAKKKRWNSIEERRIHQESELHSYLSRLIAAERERELEECQRNHEGDEDDSHVRAQQACIEAKHDKYMADMDELFSQVDEKRKKRDIPDYLCGKISFELMREPCITPSGITYDRKDIEEHLQRVGHFDPVTRSPLTQEQLIPNLAMKEVIDAFISENGWVEDY
modifications: left off: small tags and cut ends
notes: CHIP with serine 20 to glutamic acid phospho-mimetic substitution; recombinant protein, adenovirus-expressed, or knock-in mouse
resting cardiac function and lifespan (global knock-in mice): normal resting cardiac function and lifespan
Body Weight [1]: 27.7 ± 2.5 g
Ejection Fraction [1]: 67.0 ± 2.1%
Heart Rate [1]: 733.1 ± 59.6 bpm
Heart Weight [1]: 147.0 ± 19.1 mg
Heart/Body Weight [1]: 5.3 ± 0.3 mg/g
Left Ventricular Weight [1]: 108.1 ± 13.6 mg
Left Ventricular/Body Weight [1]: 3.9 ± 0.2 mg/g
Long/Body Weight [1]: 4.8 ± 0.2 mg/g
Lung Weight [1]: 131.8 ± 12.9 mg
